PubChem BioAssay AID1259308 | NCATS, 2017

- Aim: 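Genes whose loss raises luciferase production in HEK293 cells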 (primary screen)
- Cells: human HEK293 embryonic kidney cells stably expressing firefly luciferase (HEK-CMV-Luc2-Hygro)
- Reagent: single siRNA against human genes, 0.8 pmol siRNA per well
- Time to read-out: 72 h
- Read-out: 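Luciferase light (ONE-Glo) measured on one replicate plate set and viability (CellTiter-Glo) on the other, scaled to a negative control siRNA, with robust z-scores and luciferase per cell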
- Direction: total luciferase, z-score and total luciferase, % of control: higher = more reporter protein produced; luciferase per cell, z-score: higher = more reporter output per viable cell; viable cells, % of control: higher = more viable cells
- Rule for the call: 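An siRNA counts as active if its total luciferase robust z-score exceeds 3; genes with two or more such siRNAs out of three were retested with fresh siRNAs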
- Calls: active = raised luciferase; inactive = no rise
This is one part, drawn at random, of about 59,000 deposited reagents. About 1,510 of all reagents (2.6%) were called active. 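Calls use total luciferase alone and ignore viability, so some active siRNAs may act by altering cell number.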 Reagents against one gene are numbered here.

no.	gene knocked down	siRNA no.	total luciferase, z-score	total luciferase, % of control	luciferase per cell, z-score	viable cells, % of control	Outcome
1	GAREM2 (GeneID 150946)	1	-0.695	68.1	-0.613	89.4	inactive
2	GAREM2 (GeneID 150946)	2	-0.796	66.1	-0.241	78.6	inactive
3	GAREM2 (GeneID 150946)	3	-0.0796	80.3	-0.239	95.6	inactive
4	ADAM22 (GeneID 53616)	1	2.33	128	1.38	99.8	inactive
5	ADAM22 (GeneID 53616)	2	-0.267	76.6	-0.806	106	inactive
6	ADAM22 (GeneID 53616)	3	0.245	86.8	-0.00183	97	inactive
7	GPR132 (GeneID 29933)	1	0.159	85	-0.231	101	inactive
8	GPR132 (GeneID 29933)	2	-0.591	70.1	-0.444	88.1	inactive
9	GPR132 (GeneID 29933)	3	-0.0394	81.1	-0.087	92.7	inactive
10	CDKL5 (GeneID 6792)	1	0.042	82.7	0.76	75.7	inactive
11	CDKL5 (GeneID 6792)	2	0.336	88.6	0.0219	98.4	inactive
12	CDKL5 (GeneID 6792)	3	-0.376	74.4	-0.629	98.1	inactive
13	HEATR9 (GeneID 256957)	1	0.349	88.8	0.49	87.3	inactive
14	HEATR9 (GeneID 256957)	2	-0.474	72.5	-0.318	88.1	inactive
15	HEATR9 (GeneID 256957)	3	0.19	85.7	-0.0502	97	inactive
16	MOB3B (GeneID 79817)	1	-0.157	78.8	-0.231	93.5	inactive
17	MOB3B (GeneID 79817)	2	1.15	105	1.52	78.4	inactive
18	MOB3B (GeneID 79817)	3	-2.83	25.6	-3.32	68.6	inactive
19	SELENOO (GeneID 83642)	1	4.72	176	3.52	77.8	active
20	SELENOO (GeneID 83642)	2	0.6	93.8	-0.037	106	inactive
21	SELENOO (GeneID 83642)	3	-0.617	69.6	-0.843	97.1	inactive
22	IL5RA (GeneID 3568)	1	-0.467	72.6	-0.465	91.7	inactive
23	IL5RA (GeneID 3568)	2	-0.648	69	-0.441	86.6	inactive
24	IL5RA (GeneID 3568)	3	-0.111	79.7	-0.155	92.7	inactive
25	MCFD2 (GeneID 90411)	1	-0.486	72.2	-1.04	106	inactive
26	MCFD2 (GeneID 90411)	2	-0.00748	81.7	-0.732	111	inactive
27	MCFD2 (GeneID 90411)	3	-0.659	68.8	-0.36	84.5	inactive
28	CDHR3 (GeneID 222256)	1	0.52	92.2	0.34	94.2	inactive
29	CDHR3 (GeneID 222256)	2	1.21	106	1.16	87.3	inactive
30	CDHR3 (GeneID 222256)	3	1.02	102	2.34	61.7	inactive
31	PRXL2C (GeneID 195827)	1	-0.332	75.3	-0.116	86.7	inactive
32	PRXL2C (GeneID 195827)	2	-0.978	62.4	-1.19	95.4	inactive
33	PRXL2C (GeneID 195827)	3	-1.39	54.2	-1.13	81.6	inactive
34	RAP1GAP2 (GeneID 23108)	1	-0.0176	81.5	-0.571	106	inactive
35	RAP1GAP2 (GeneID 23108)	2	2.19	125	1.7	89.6	inactive
36	RAP1GAP2 (GeneID 23108)	3	-0.163	78.6	-0.229	93.3	inactive
37	CCR7 (GeneID 1236)	1	-1.17	58.7	-0.562	76	inactive
38	CCR7 (GeneID 1236)	2	0.0771	83.4	-0.422	104	inactive
39	CCR7 (GeneID 1236)	3	-0.726	67.5	-1.03	98.8	inactive

Copied from above, 4 entries:
no.	gene knocked down	siRNA no.	total luciferase, z-score	total luciferase, % of control	luciferase per cell, z-score	viable cells, % of control	Outcome
27	MCFD2 (GeneID 90411)	3	-0.659	68.8	-0.36	84.5	inactive
28	CDHR3 (GeneID 222256)	1	0.52	92.2	0.34	94.2	inactive
29	CDHR3 (GeneID 222256)	2	1.21	106	1.16	87.3	inactive
30	CDHR3 (GeneID 222256)	3	1.02	102	2.34	61.7	inactive
